Taken from: PubChem BioAssay AID602196 (INSERM, 2012)

- Assay: 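Genes whose knock-down alters cisplatin killing of lung cancer cells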
- Cell system: human A549 lung cancer cells
- Knock-down reagent: siRNA pair against human genes
- Duration: 48 h transfection before cisplatin; time from cisplatin to read-out not stated
- Treatment: cisplatin at a dose killing half of control-siRNA cells; exact dose and duration not given
- Detection: 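Cisplatin cell death as a shift from the 50% death seen with control siRNA; siRNAs toxic or growth-blocking alone scored 0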
- Reading the numbers: two-siRNA summed score (-2 to +2): higher = both siRNAs protect from cisplatin killing; -2 means both sensitise; mean protection from cisplatin (shift in death): higher = protection from cisplatin killing
- Rule for the call: 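siRNAs harmful alone (LDH or WST-1) get 0; others get +1 for less and -1 for more cisplatin killing; genes are active when the two siRNAs give the same sign, summing to ±2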
- Calls: active = both siRNAs shift cisplatin killing the same way; inactive = no consistent shift, or siRNA harmful alone
The whole screen tested about 23,000 reagents; this is a part drawn at random. Over the whole deposit, 455 (2%) were called active. 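Active includes both protection and sensitisation; some change values fall well beyond the stated -50 to +50 range.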 A number with no mark means an inactive call. Not all columns of the deposit are shown. Not given: the amount of reagent.

no.	gene	two-siRNA summed score (-2 to +2)	mean protection from cisplatin (shift in death) (%)
1	OR5M9	0	16.7
2	TAAR5	0	5.1
3	SRL	0	3.9
4	TM7SF2	0	-6.6
5	LINC00955	0	6.4
6	ADGRG4	0	-1.5
7	LOC390564	2 (active)	24.8
8	COL4A1	1	12.6
9	LOC402560	0	6.4
10	ZNF429	0	3.8
11	FADS6	0	3.4
12	PTPN12	0	-0.8
13	GNRH2	1	14.5
14	IFNE	-1	-4.2
15	IGHMBP2	0	7.5
16	PITHD1	0	6.8
17	LAMB2	0	-10.2
18	WDR13	-1	-9.5
19	PKD1L2	0	31.6
20	PGCKA1	-1	-4.1
21	PPFIA4	0	-3.9
22	CYB561D2	0	3.6
23	LOC442557	1	12.7
24	CACNA1D	0	5.1
25	LOC440467	0	15.7
26	PTGES2-DT	0	-0.8
27	LYRM2	0	-6.5
28	ZNF677	0	5.4
29	BBS9	0	5.1
30	GNPDA1	0	0.4
31	ASB8	-2 (active)	-14.3
32	TBC1D3C	0	6
33	LOXL1	0	-0.3
34	TEX101	-1	-12
35	SGPL1	0	-0.3
36	PTCD1	0	6.7
37	DIP2A	0	7.5
38	LOC388519	0	7.5
39	LOC286528	0	2
40	OR2L2	0	9.5
41	SLC9A6	-1	-8.9
42	CNOT12	0	3.1
43	NFE2L1	0	3.5
44	NDUFAF5	0	10
45	CEACAM5	0	4
46	DSTYK	0	-3.6
47	LOC388567	1	-0.5
48	HMFN0672	0	5.1
49	PLEKHA4	0	-7.2
50	CPNE2	0	12.6
51	TMED4	-1	-5.5
52	LOC347421	0	11.6
53	MISP3	0	3.1
54	LOC401250	0	12.9
55	PLAC9	0	15.2
56	PIGS	0	-0.6
57	LOC441790	1	12.1
58	LOC346910	0	3.9
59	LOC442002	0	3.2
60	LAYN	0	-5.7
61	UQCRH	1	4.3
62	LOC442281	-1	-1.4
63	LOC402539	0	13.9
64	NDUFA11	0	7.5
65	LOC441166	0	1.1
66	OR51F2	0	8.5
67	SLK	1	19.7
68	TLNRD1	-1	-4.5
69	D-2L	0	13.8
70	PPP2CB	0	0.6
71	FAM167B	0	6
72	FOXA2	1	24.9
73	SIK2	-1	-2.1
